The target of assay [1] is T1, Noxa (human (endogenous in primary liver tissue)) (UniProt Q13794).
T1 sequence: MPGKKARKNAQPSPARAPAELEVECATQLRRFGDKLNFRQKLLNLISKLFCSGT
Nature of the assay: co-IP; human primary HCC and paired normal liver tissue lysates in RIPA buffer, precleared with protein G Sepharose; incubated overnight at 4 °C with Noxa or SARM antibody, then protein G Sepharose 3 h; immunoblot for SAG.

The chains behind the UniProt entries cited, without tags or fusion partners.
UniProt Q9UBF6: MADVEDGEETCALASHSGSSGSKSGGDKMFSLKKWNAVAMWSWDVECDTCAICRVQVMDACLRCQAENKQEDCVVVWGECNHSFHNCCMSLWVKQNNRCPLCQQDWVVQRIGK

For assay [2], the target named is T2, SARM (sterile α and HEAT/armadillo-motif-containing protein) (human (endogenous in primary liver tissue)) (UniProt Q6SZW1).
T2 sequence: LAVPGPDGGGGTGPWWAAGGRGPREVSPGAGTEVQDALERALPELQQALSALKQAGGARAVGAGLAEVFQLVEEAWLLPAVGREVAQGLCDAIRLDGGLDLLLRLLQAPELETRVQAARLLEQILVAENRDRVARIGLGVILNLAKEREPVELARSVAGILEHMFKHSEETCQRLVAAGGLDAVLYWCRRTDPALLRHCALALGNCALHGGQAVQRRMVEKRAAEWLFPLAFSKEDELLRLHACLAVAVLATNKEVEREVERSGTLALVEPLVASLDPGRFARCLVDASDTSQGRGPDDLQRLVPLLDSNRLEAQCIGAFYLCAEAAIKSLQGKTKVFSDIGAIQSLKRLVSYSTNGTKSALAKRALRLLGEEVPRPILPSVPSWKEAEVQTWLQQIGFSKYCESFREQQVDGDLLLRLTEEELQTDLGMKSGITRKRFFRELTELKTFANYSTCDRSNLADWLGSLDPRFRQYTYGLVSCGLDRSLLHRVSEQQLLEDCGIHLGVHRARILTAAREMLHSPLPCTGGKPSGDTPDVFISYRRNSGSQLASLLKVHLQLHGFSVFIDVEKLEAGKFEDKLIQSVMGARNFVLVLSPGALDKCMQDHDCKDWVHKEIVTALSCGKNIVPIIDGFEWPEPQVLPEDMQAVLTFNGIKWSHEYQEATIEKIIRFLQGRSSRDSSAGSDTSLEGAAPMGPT
Described as above.

These are yes or no findings as the source states them, for the method shown. Binding seen in cells or lysates may run through a third protein. Some results given as binding are weak or reduced against the parent protein; the word gives no strength.

Regarding “SAG (sensitive to apoptosis gene) (from UniProt Q9UBF6 1-113)”, the binding entry in assay [1] and in assay [2] was “binds” throughout.
